PubChem BioAssay AID1259254 – NCATS – 2017
The deposit covers about 59,000 reagents; below is a part drawn at random. About 1,550 of them (2.6%) were called active. 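G2 share is only a proxy for re-replication; each gene was hit by three separate siRNAs, and active genes were retested.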 The raw values are shown without normalisation. The numbers tell different reagents against one gene apart. Not given: the amount of reagent.

Assay: 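Genome-wide screen for genes that prevent DNA re-replication in cancer cells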 (primary screen)
System: human HCT116 colorectal cancer cells
Knock-down reagent: single siRNA against human genes
Duration: 3 days
Read-out: 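Imaged Hoechst DNA stain sorts each cell into a cycle phase by DNA amount; per plate, G2 fraction set to 0% for non-targeting and 100% for GMNN siRNA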
Direction: G2 robust z-score and G2 cells, % of GMNN control: higher = more G2 cells, more excess DNA replication; raw share of cells in G2: higher = larger share of cells with G2 DNA content
Active means: 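Active siRNAs have a G2 robust z of 5 or more median absolute deviations over the median, which in these data means about 38% or higher of GMNN control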

The opening 3 entries, to show the layout:
G2 robust z-score | G2 cells, % of GMNN control | raw share of cells in G2 (%) | call | target gene | siRNA no.
-0.597 | -1.23 | 3.86 | inactive | RGL3 (ral guanine nucleotide dissociation stimulator like 3) | 1
2.64 | 21.6 | 14.8 | inactive | RGL3 (ral guanine nucleotide dissociation stimulator like 3) | 2
-0.283 | 0.98 | 3.34 | inactive | RGL3 (ral guanine nucleotide dissociation stimulator like 3) | 3

The listing, repeating the preview:
G2 robust z-score | G2 cells, % of GMNN control | raw share of cells in G2 (%) | call | target gene | siRNA no.
-0.597 | -1.23 | 3.86 | inactive | RGL3 (ral guanine nucleotide dissociation stimulator like 3) | 1
2.64 | 21.6 | 14.8 | inactive | RGL3 (ral guanine nucleotide dissociation stimulator like 3) | 2
-0.283 | 0.98 | 3.34 | inactive | RGL3 (ral guanine nucleotide dissociation stimulator like 3) | 3
-0.903 | -3.39 | 3.14 | inactive | FBXL2 (F-box and leucine rich repeat protein 2) | 1
0.947 | 9.63 | 8.11 | inactive | FBXL2 (F-box and leucine rich repeat protein 2) | 2
-0.303 | 0.838 | 3.59 | inactive | FBXL2 (F-box and leucine rich repeat protein 2) | 3
0.614 | 7.29 | 6.21 | inactive | BIVM (basic, immunoglobulin-like variable motif containing) | 1
2.07 | 17.5 | 11.6 | inactive | BIVM (basic, immunoglobulin-like variable motif containing) | 2
-0.288 | 0.94 | 3.5 | inactive | BIVM (basic, immunoglobulin-like variable motif containing) | 3
-0.83 | -2.87 | 4.19 | inactive | E2F4 (E2F transcription factor 4) | 1
0.548 | 6.82 | 6.09 | inactive | E2F4 (E2F transcription factor 4) | 2
-0.588 | -1.17 | 4.82 | inactive | E2F4 (E2F transcription factor 4) | 3
2.74 | 22.2 | 13.1 | inactive | CYP8B1 (cytochrome P450 family 8 subfamily B member 1) | 1
-0.645 | -1.57 | 3.55 | inactive | CYP8B1 (cytochrome P450 family 8 subfamily B member 1) | 2
8.58 | 63.3 | 27.6 | active | CYP8B1 (cytochrome P450 family 8 subfamily B member 1) | 3
-0.836 | -2.92 | 2.23 | inactive | CHST6 (carbohydrate sulfotransferase 6) | 1
1.08 | 10.6 | 9.66 | inactive | CHST6 (carbohydrate sulfotransferase 6) | 2
-0.505 | -0.587 | 5.13 | inactive | CHST6 (carbohydrate sulfotransferase 6) | 3
-0.0443 | 2.66 | 4.9 | inactive | DPY19L2P2 (DPY19L2 pseudogene 2) | 1
0.553 | 6.86 | 6.26 | inactive | DPY19L2P2 (DPY19L2 pseudogene 2) | 2
-0.449 | -0.19 | 4.11 | inactive | DPY19L2P2 (DPY19L2 pseudogene 2) | 3
-1.67 | -8.81 | 2.69 | inactive | ADGRE1 (adhesion G protein-coupled receptor E1) | 1
-0.463 | -0.287 | 4.42 | inactive | ADGRE1 (adhesion G protein-coupled receptor E1) | 2
-0.365 | 0.4 | 3.39 | inactive | ADGRE1 (adhesion G protein-coupled receptor E1) | 3
-1.23 | -5.69 | 2.27 | inactive | CIZ1 (CDKN1A interacting zinc finger protein 1) | 1
-0.476 | -0.383 | 3.77 | inactive | CIZ1 (CDKN1A interacting zinc finger protein 1) | 2
-0.545 | -0.868 | 3 | inactive | CIZ1 (CDKN1A interacting zinc finger protein 1) | 3
-1.44 | -7.15 | 3.25 | inactive | GSK3A (glycogen synthase kinase 3 alpha) | 1
-0.786 | -2.56 | 4.55 | inactive | GSK3A (glycogen synthase kinase 3 alpha) | 2
0.163 | 4.12 | 5.48 | inactive | GSK3A (glycogen synthase kinase 3 alpha) | 3
0.157 | 4.07 | 5.81 | inactive | KNDC1 (kinase non-catalytic C-lobe domain containing 1) | 1
1.81 | 15.7 | 7.91 | inactive | KNDC1 (kinase non-catalytic C-lobe domain containing 1) | 2
2.1 | 17.7 | 8.55 | inactive | KNDC1 (kinase non-catalytic C-lobe domain containing 1) | 3
0.975 | 9.83 | 8.11 | inactive | TP53TG3 (TP53 target 3) | 1
0.286 | 4.98 | 6.1 | inactive | TP53TG3 (TP53 target 3) | 2
-0.376 | 0.321 | 3.41 | inactive | TP53TG3 (TP53 target 3) | 3
2.71 | 22 | 16 | inactive | AADAT (aminoadipate aminotransferase) | 1
0.42 | 5.92 | 6.43 | inactive | AADAT (aminoadipate aminotransferase) | 2
-0.213 | 1.47 | 4.36 | inactive | AADAT (aminoadipate aminotransferase) | 3
-0.36 | 0.434 | 4.29 | inactive | RAB3A (RAB3A, member RAS oncogene family) | 1
-0.176 | 1.73 | 5.57 | inactive | RAB3A (RAB3A, member RAS oncogene family) | 2
-0.264 | 1.11 | 5.1 | inactive | RAB3A (RAB3A, member RAS oncogene family) | 3
1.11 | 10.8 | 9.27 | inactive | THOC1 (THO complex subunit 1) | 1
-0.182 | 1.69 | 3.78 | inactive | THOC1 (THO complex subunit 1) | 2
-0.215 | 1.46 | 5.34 | inactive | THOC1 (THO complex subunit 1) | 3
4.3 | 33.2 | 17.6 | inactive | CLEC4G (C-type lectin domain family 4 member G) | 1
-0.983 | -3.95 | 2.63 | inactive | CLEC4G (C-type lectin domain family 4 member G) | 2
-0.354 | 0.479 | 3.47 | inactive | CLEC4G (C-type lectin domain family 4 member G) | 3
